In this experiment the target is DP-1 (expressed from pCMV-DP-1) (UniProt Q14186). Kind of experiment: band shift assay (EMSA) with extracts of transfected U2-OS cells.

Chains of the proteins cited; added tags and fusions are not shown. Lines headed by an entry give the natural chain unless they say otherwise; changes in a name come on top.
UniProt Q14186: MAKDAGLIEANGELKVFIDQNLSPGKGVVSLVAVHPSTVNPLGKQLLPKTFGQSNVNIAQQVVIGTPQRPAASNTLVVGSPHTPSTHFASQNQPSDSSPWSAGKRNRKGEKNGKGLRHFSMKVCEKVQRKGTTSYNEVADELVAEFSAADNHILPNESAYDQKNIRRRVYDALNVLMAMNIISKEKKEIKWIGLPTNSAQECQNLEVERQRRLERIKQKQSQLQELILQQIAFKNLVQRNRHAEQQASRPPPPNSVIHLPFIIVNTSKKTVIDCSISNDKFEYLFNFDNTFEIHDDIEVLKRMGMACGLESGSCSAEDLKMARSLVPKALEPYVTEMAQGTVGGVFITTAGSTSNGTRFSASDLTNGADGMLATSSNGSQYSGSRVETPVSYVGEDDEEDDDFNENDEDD
UniProt Q15329: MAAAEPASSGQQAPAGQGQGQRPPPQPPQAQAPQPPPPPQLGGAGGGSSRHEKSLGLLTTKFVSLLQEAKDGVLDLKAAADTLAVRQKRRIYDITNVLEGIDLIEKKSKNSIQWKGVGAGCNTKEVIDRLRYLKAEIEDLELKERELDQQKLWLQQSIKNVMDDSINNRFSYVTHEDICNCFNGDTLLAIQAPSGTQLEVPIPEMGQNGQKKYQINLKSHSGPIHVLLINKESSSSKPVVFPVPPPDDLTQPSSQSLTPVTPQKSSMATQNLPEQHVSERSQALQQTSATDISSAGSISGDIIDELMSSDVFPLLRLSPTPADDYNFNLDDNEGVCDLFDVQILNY

No constants are given. Whether binding was seen depends on the method and setting. Some entries that bind do so weakly or less than the wild type.

As to “HA-tagged full length human E2F-5 (expressed from pJ3-E2F-5) (from UniProt Q15329 1-346)”, the binding result is reported as “binds”.

(Values after patent US6448376.)
